Assay results published in paper PMC8208988.
No constants are given. Whether binding was seen depends on the method and setting. For some assays here: In cells and extracts the contact can be indirect. Some entries that bind do so weakly or less than the wild type. For some assays here: Where a sequence is shown, tags or fusion partners need not be part of it.

The chains behind the UniProt entries cited, without tags or fusion partners. Residues count along the entry.
UniProt Q96CB9, residues 26-384: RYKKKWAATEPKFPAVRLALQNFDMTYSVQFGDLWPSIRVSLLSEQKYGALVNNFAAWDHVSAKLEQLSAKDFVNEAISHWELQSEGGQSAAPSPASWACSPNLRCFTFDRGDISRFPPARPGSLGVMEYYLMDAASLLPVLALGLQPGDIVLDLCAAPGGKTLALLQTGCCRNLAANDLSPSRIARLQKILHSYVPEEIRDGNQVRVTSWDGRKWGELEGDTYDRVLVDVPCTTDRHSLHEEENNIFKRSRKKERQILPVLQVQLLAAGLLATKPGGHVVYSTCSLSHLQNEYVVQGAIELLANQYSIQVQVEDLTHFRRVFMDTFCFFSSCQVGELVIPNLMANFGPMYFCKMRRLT

Assays:
[1] = target: T1, FLAG-tagged MTERF4 (human) (UniProt Q7Z6M4); test: co-sedimentation; continuous 10-30% sucrose gradient of mitochondrial lysates (2% digitonin, 100 mM KCl, 20 mM MgCl2, 10 mM Tris-HCl pH 7.5) from HEK 293T cells co-expressing MTERF4-FLAG and an NSUN4-HA variant; fractions immunoblotted for HA, FLAG, bL12m, bS16m
T1 sequence: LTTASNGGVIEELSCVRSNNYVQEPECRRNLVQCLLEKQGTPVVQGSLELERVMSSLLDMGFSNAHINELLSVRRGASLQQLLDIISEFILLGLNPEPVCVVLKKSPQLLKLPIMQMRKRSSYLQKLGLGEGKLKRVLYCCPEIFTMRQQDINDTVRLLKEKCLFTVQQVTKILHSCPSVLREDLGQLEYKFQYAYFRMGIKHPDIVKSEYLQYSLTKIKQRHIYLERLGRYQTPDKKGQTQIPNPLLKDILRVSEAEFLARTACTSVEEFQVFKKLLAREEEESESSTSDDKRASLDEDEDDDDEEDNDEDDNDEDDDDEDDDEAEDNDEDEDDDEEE

[2] = target: T2, MTERF4 (human (endogenous in HEK 293 EBNA)) (UniProt Q7Z6M4); test: cryo-EM structure; mt-LSU assembly intermediates affinity-purified through MTG1-3xFLAG from HEK 293 EBNA mitochondria; states A, B, C at 2.9, 3.1, 3.1 Å; 20 mM HEPES-KOH pH 7.6, 100 mM KCl, 20 mM MgCl2, 1 mM DTT
T2 sequence: T1 sequence

| binding [1] | binding [2] | Substance |
| --- | --- | --- |
| binds | – | HA-tagged NSUN4, wild type (from UniProt Q96CB9 26-384) (enzyme) |
| – | binds | NSUN4 (from UniProt Q96CB9 26-384) (enzyme) |
